Experimental data as given in patent US20090138978A1.
Results are given in words; binding and its absence hold for the method and conditions named. In cells and extracts the contact can be indirect. Some binding calls cover weakened binding; strength is not graded here.

By UniProt entry, the sequences of proteins in these tests, tags left out. Where a name states a change or a piece, a line headed by the entry shows the natural chain unless it says otherwise. Residues count along the entry.
UniProt P52947: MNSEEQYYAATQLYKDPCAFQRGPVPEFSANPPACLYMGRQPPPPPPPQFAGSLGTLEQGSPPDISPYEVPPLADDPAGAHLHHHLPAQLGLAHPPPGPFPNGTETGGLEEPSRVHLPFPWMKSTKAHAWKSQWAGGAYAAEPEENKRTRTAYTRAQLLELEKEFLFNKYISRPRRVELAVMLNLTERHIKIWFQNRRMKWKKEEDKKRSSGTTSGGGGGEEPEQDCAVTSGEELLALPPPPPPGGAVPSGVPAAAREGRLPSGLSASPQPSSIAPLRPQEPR
GST-PDX-1 (1-206): residues 1-206 of P52947
GST-p300 (1-595) (Q09472, residues 1-595): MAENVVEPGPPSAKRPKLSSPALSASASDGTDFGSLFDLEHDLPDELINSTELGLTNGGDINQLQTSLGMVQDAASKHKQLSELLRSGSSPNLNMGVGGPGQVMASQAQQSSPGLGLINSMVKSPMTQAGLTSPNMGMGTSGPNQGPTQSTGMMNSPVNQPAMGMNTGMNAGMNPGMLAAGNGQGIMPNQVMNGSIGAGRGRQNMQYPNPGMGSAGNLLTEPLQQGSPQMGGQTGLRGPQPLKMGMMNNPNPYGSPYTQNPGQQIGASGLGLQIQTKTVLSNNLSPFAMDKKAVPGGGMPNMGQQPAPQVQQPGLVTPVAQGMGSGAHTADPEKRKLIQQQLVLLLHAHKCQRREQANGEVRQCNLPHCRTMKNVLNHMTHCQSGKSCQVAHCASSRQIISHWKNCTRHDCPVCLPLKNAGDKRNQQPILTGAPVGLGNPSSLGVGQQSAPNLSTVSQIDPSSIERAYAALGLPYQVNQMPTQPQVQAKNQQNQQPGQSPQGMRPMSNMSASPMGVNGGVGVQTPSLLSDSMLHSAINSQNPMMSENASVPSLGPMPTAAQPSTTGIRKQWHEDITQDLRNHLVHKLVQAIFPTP
GST-p300 (744-1571) (Q09472, residues 744-1571): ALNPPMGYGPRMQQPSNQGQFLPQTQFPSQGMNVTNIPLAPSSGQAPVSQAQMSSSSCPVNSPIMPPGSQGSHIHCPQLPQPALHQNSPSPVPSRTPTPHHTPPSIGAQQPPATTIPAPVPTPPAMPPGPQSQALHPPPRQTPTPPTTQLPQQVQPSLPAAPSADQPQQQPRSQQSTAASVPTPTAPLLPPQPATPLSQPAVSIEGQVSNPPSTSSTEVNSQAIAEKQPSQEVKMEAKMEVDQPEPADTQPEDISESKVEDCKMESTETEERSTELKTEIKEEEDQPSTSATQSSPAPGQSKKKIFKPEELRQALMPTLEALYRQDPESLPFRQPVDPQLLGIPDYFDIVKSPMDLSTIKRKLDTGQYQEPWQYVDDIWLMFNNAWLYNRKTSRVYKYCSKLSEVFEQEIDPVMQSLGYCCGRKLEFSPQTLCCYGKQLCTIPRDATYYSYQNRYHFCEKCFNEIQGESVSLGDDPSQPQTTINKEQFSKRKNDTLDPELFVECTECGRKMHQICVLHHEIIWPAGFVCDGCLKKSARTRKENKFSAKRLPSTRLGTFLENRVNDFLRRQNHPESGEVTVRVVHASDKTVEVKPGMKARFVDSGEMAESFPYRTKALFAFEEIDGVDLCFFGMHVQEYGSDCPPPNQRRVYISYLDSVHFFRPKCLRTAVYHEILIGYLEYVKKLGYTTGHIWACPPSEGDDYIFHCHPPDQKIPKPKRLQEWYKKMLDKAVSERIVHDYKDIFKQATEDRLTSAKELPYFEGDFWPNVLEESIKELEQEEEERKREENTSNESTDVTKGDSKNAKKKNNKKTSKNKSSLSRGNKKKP

Assays:
GST-PDX-1 (1-206) (rat) [1] = biological target: GST-PDX-1 (1-206) (rat) (UniProt P52947); experiment: GST pull-down, autoradiogram (FIG. 23c)
GST-p300 (1-595) = GST-p300 (1-595) (UniProt Q09472); experiment: GST pull-down with [35S]-labelled in vitro translated Bridge-1
GST-p300 (744-1571) = GST-p300 (744-1571) (UniProt Q09472); experiment: as above
GST-PDX-1 (1-206) (rat) [2] = biological target: GST-PDX-1 (1-206) (rat) (UniProt P52947); experiment: GST pull-down with [35S]-labelled in vitro translated rat Bridge-1
[3] = biological target: GST-PDX-1 (full-length rat PDX-1) (rat) (UniProt P52947); experiment: as above

Measured: binding

B1: rat Bridge-1 (full-length, 1-222) (protein)
chain: MSSEEVRHRAESSEARAAAVSDIQELMRRKEEIEAQIKANYDVLESQKGIGMNEPLVDCEGYPRADVDLYQVRTARHNIICLQNDHKALMKQVEEALHQLHARDKEKQARDMAEAREEAMNRRLASDSPALPKAFARVNSISPGSPASIAGLQVDDEIVEFGSVNTQNFQSLQNVGTVVQHSEGKPLNVMVIRRGEKHQLRLTPTRWAGKGLLGCNITPLQR
modifications: [35S]-methionine labelled in the pull-down assays
binds: all assays above
